Values of other authors in US20020187219A1, “Low glycemic response compositions” (The Procter & Gamble Co., priority 2001, published 2002).

Settings: individual sugars; glucose = reference food, 100 as defined

SMILES: OC[C@H]1O[C@@](CO)(O[C@H]2O[C@H](CO)[C@@H](O)[C@H](O)[C@H]2O)[C@@H](O)[C@@H]1O [Sucrose]
- Glycemic Index: 65

SMILES: OC[C@H]1O[C@H](O[C@H]2[C@H](O)[C@@H](O)C(O)O[C@@H]2CO)[C@H](O)[C@@H](O)[C@@H]1O (mixture of isomers) [maltose]
- Glycemic Index: 105
